Our source for the binding values is publication PMC10342113.

The chains behind the UniProt entries cited, without tags or fusion partners.
UniProt Q02248: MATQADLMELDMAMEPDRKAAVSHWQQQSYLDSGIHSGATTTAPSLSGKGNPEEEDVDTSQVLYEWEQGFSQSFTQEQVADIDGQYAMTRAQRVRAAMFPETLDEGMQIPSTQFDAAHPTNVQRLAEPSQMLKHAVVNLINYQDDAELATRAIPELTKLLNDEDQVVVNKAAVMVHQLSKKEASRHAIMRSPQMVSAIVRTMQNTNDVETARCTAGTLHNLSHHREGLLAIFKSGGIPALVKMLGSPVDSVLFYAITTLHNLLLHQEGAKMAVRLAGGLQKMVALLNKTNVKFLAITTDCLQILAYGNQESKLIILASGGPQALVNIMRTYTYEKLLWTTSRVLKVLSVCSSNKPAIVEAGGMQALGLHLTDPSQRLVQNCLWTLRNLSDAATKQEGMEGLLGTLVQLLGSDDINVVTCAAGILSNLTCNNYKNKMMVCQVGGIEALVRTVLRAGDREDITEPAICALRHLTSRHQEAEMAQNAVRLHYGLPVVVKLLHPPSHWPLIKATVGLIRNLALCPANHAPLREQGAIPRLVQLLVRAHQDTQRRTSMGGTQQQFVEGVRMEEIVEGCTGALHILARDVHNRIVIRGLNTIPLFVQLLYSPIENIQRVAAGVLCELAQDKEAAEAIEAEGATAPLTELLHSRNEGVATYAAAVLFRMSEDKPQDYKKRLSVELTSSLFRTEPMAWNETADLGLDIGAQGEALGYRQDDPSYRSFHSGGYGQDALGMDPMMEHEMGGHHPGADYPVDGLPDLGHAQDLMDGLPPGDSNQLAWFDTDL
UniProt P23242: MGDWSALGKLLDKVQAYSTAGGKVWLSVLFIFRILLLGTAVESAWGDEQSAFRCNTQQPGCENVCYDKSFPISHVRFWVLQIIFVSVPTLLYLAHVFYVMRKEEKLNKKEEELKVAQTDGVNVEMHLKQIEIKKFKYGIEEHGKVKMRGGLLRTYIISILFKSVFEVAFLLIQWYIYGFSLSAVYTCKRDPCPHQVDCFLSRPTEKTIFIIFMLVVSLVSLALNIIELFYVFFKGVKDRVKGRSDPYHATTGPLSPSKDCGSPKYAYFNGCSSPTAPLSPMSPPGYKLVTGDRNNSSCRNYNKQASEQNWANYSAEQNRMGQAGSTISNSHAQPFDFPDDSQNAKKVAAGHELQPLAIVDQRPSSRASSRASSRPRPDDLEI

For assay [1], the target named is β-catenin (mouse (endogenous in MLO-Y4 and MC3T3-E1)) (UniProt Q02248). Nature of the assay: co-IP; endogenous proteins; Np-40 lysate (1 μg/μL) of MLO-Y4 and of MC3T3-E1 cells, pre-cleaned with protein G magnetic beads; precipitated with 10 μg rabbit-anti-mouse β-catenin antibody and protein G magnetic beads; rabbit IgG as control; Western blot for Cx43. (In general: A western blot detects proteins with antibodies after separation by electrophoresis.)

Assay [2] has as its target connexin 43 (mouse (endogenous in MLO-Y4 and MC3T3-E1)) (UniProt P23242). Nature of the assay: co-IP; endogenous proteins; Np-40 lysate (1 μg/μL) of MLO-Y4 and of MC3T3-E1 cells, pre-cleaned with protein G magnetic beads; precipitated with 10 μg rabbit-anti-mouse Cx43 antibody and protein G magnetic beads; rabbit IgG as control; Western blot for β-catenin.

No constants are given. Whether binding was seen depends on the method and setting. Binding seen in cells or lysates may run through a third protein. Some entries that bind do so weakly or less than the wild type.

As to connexin 43 (from UniProt P23242 1-382), the binding result in assay [1] is “binds”.
β-catenin (from UniProt Q02248 1-781): the binding entry in assay [2] is “binds”.
